No constants are given. Whether binding was seen depends on the method and setting. Binding seen in cells or lysates may run through a third protein. Some results given as binding are weak or reduced against the parent protein; the word gives no strength.
How the values were obtained:
[1] = molecular target: Parkinson disease 7 (DJ-1) (human (endogenous in HEK293, HT29, HCT116)) (UniProt Q99497); test: co-IP; endogenous: HEK-293 and HT29 cell lysates immunoprecipitated with anti-DJ-1 or control IgG antibodies
[2] = molecular target: Flag-tagged Caveolin-1 (UniProt Q03135); test: co-IP; exogenous: HCT116 cells with FLAG-tagged CAV1 overexpression plasmid or empty vector; total FLAG-tagged CAV1 immunoprecipitated

Sequences of proteins named here, by UniProt entry; tags and fusion partners are left off.
UniProt Q99497: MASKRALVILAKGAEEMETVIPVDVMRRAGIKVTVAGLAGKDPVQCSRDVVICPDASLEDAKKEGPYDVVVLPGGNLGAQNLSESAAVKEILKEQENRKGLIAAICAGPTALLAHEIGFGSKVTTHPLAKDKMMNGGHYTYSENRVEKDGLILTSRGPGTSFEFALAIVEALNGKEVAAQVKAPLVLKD
UniProt Q03135: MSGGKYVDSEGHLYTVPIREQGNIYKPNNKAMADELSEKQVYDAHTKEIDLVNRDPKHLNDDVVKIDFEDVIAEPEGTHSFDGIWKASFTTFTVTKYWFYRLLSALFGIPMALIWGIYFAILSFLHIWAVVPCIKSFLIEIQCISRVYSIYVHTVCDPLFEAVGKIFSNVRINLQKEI

“Caveolin-1 (endogenous) (from UniProt Q03135 1-178)” was tested, and the binding [1] was “binds”.

“Parkinson disease 7 (DJ-1) (from UniProt Q99497 1-189)” was tested, and the binding [2] was “binds”.
